# Test results reported in PMC5479826 (Scientific Reports, 2017).
# Test: general procedure: Fmoc solid-phase peptide synthesis; NovaPEG Rink Amide resin; HBTU/DIEA
# Details: whole synthesis
row,Substance,final purity (method not given)
1,CDELNEMENTQR,>95%
2,CDLEVESGGRDRY,>95%
3,CEALQQIMENQCD,>95%
4,CNFRAPQRCDLDV,>95%
5,ERDPYSP^OHSQDPYSP^OHS,>95%
6,HASARQQWEL,>95%
7,KPCEQHIMQRI,>95%
8,KRELRMLPQQ,>95%
9,MRRERGRGGDSSSS,>95%
10,NLRPCEQHLMQKIQRD,>95%
11,RQQEQQFKRELRNLPQQ,>95%
12,RRCQSQLER,>95%
13,SDRLQGRQQ,>95%

# End groups of sequences in plain letters are not given here. One purity is given for all peptides; the source may state it once.
